These are yes or no findings as the source states them, for the method shown. Some binding calls cover weakened binding; strength is not graded here. Tags and fused reporters may be left off the sequences shown.
Target: CP190-BTB/POZ (BTB/POZ domain of CP190), His-tagged (Drosophila) (UniProt Q24478)
Assay: crystal structure; CP190-BTB/POZ; 0.8 M NaH2PO4, 0.8 M KH2PO4, 0.1 M Hepes pH 7.5; space group P3_(2)21; molecular replacement; both purified

B1: CP190-BTB/POZ (BTB/POZ domain of CP190), His-tagged (domain or fragment, Drosophila)
chain: MGEVKSVKVDNWGVFFLQKLQNFFNKTDYCDLTLQFRDNSQLKVHRLVLSACTDYFNVLEQTCEIVDDALIMPNEFQADVVVPIVNFMYTGTLEFELKMYGKLLRTAKEMNMTVLLKLLEAHRRTMENVNRQQR
notes: N-terminal BTB/POZ domain of CP190, Drosophila; source: E. coli BL21 (DE3)-pLysS, purified
binding: binds

Reference: article PMC4148193, “Chromatin Insulator Factors Involved in Long-Range DNA Interactions and Their Role in the Folding of the Drosophila Genome” (PLoS Genetics, 2014)
